The experiment addresses T1, prohibitin (B cell receptor associated protein; prohibitin receptor protein complex) (mouse).
T1 sequence (P67778 2-272, looked up): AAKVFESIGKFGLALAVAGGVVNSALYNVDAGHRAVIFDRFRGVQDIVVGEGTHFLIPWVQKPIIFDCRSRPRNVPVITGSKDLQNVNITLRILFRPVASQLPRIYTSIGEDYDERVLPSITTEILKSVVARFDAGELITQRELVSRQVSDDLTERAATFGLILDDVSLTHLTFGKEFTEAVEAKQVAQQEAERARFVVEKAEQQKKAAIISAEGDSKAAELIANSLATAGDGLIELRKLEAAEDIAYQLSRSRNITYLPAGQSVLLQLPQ
The experiment can be described thus: immunoprecipitation from mouse adipose tissue extract, SDS-PAGE.

Results are given in words; binding and its absence hold for the method and conditions named. Binding calls can cover weak binding; strength is not graded here.

As to CARACKLAKLAKKLAKLAK (cyclized using the terminal cysteines) [CARAC (SEQ ID NO:12) conjugated to (KLAKLAK)2 (SEQ ID NO:1)], the binding result is “binds”.

These data come from patent publication US20060094672A1 (University of Texas, published 2006).
